# Test results from PubChem BioAssay AID2662 (National Center for Advancing Translational Sciences (NCATS), 2010).
# The chains behind the UniProt entries cited, without tags or fusion partners.
# UniProt Q03164, whole entry, looked up: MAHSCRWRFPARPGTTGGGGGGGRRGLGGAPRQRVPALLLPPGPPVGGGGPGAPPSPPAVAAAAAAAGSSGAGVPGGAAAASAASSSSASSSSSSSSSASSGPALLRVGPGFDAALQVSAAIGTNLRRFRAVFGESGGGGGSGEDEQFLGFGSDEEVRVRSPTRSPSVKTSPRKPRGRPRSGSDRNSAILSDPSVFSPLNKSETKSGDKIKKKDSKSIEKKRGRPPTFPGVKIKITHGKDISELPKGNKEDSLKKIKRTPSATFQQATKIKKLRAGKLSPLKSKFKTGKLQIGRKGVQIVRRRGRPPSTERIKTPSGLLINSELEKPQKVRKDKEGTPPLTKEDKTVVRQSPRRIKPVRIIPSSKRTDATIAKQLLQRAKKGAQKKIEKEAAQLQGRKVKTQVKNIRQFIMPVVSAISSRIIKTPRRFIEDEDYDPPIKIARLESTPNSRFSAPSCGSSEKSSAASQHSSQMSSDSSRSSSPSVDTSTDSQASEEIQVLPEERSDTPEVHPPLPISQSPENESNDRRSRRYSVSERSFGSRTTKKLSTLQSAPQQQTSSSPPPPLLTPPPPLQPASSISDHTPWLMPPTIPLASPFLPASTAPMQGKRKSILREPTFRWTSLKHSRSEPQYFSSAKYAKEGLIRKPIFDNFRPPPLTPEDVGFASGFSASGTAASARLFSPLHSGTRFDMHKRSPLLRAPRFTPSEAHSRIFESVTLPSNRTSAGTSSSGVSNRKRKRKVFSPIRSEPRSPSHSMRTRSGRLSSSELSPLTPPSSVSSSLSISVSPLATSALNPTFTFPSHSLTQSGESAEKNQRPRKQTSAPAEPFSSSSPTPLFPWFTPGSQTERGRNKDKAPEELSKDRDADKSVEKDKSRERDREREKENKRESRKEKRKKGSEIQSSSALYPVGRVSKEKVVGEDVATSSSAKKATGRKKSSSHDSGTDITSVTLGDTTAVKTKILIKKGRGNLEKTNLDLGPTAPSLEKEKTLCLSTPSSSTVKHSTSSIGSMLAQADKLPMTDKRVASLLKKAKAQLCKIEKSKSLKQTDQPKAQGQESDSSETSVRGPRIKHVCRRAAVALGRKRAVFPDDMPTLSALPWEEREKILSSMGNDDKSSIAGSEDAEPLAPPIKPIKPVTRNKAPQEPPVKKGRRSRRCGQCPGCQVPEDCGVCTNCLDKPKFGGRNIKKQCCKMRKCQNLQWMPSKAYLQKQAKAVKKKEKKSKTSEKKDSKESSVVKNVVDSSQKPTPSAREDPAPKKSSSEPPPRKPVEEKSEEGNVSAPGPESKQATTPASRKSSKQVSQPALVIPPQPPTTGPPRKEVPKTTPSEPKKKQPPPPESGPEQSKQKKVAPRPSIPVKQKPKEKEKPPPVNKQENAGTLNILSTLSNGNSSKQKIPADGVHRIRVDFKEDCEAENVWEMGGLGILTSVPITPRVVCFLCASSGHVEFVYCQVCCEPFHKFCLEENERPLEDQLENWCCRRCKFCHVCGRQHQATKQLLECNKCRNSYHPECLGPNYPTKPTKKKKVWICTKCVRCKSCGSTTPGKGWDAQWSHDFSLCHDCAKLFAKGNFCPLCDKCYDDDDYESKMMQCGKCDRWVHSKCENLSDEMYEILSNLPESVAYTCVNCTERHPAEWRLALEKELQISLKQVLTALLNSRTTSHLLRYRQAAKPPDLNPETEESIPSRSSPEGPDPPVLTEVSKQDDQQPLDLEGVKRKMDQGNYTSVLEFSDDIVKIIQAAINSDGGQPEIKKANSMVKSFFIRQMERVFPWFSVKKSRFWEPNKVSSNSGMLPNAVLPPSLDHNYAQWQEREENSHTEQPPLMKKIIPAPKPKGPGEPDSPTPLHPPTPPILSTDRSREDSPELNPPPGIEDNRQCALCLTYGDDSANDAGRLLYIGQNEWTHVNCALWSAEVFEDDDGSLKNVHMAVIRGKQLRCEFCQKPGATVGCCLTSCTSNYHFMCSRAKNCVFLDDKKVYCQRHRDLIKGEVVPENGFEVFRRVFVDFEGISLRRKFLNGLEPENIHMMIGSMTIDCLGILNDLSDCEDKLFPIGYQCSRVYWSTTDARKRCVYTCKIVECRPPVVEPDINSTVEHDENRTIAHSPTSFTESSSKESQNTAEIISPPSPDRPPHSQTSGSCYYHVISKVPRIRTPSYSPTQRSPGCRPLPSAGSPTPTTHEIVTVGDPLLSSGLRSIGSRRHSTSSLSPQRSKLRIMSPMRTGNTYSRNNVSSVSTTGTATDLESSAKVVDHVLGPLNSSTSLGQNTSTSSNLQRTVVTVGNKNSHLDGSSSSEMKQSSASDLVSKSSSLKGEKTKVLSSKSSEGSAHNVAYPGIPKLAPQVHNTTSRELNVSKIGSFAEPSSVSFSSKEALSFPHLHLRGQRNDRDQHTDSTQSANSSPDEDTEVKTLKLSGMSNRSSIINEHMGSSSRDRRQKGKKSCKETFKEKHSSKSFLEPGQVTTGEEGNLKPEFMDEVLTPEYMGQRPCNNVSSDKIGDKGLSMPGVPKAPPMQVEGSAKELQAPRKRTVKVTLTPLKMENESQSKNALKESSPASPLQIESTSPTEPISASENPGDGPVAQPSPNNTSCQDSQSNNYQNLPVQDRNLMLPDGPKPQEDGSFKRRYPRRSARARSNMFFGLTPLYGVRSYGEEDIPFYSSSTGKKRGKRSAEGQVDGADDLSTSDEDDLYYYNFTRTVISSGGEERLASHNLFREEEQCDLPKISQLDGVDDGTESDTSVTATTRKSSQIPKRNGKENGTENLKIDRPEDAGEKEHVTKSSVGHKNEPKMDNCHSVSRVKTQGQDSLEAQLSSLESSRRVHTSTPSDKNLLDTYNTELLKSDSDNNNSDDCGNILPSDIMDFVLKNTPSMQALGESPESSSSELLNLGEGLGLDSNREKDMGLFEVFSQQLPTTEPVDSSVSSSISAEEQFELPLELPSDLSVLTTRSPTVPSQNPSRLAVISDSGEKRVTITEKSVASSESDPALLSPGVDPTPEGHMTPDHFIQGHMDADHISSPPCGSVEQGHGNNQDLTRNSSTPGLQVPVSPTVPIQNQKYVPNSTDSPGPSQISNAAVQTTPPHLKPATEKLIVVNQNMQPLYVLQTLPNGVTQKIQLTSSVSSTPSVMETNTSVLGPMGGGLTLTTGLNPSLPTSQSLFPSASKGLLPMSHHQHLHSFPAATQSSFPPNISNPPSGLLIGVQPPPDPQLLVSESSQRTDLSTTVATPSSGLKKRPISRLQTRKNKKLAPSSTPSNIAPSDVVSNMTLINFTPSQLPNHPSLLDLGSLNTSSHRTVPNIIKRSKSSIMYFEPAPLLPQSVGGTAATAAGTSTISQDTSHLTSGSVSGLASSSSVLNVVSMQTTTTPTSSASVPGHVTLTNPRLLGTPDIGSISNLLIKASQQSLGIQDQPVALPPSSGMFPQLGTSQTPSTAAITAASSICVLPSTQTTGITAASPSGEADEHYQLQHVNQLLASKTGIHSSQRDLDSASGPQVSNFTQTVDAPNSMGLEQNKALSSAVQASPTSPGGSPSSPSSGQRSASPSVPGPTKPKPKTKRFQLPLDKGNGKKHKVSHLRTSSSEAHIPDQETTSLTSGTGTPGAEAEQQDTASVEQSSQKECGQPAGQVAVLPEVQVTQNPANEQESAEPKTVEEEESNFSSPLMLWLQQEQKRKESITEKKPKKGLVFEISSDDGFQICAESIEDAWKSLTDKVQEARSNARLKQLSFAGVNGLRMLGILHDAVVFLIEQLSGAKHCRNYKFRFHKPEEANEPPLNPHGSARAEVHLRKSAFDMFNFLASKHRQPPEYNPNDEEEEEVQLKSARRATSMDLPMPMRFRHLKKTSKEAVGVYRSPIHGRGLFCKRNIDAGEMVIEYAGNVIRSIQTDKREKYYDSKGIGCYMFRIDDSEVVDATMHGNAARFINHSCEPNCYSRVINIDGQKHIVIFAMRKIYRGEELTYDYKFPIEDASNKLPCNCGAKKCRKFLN
# In all, about 290,000 compounds went through this assay and about 110 (0.038%) were called active. Inconclusive means that the source gave no clear call. Such entries were picked first, then a sample of the others. Calls follow the shape of the dose curve; as a rule, active = well fitted inhibition curve with a large enough effect in the polarisation, with a control signal flat (not every such curve was filed as active); inconclusive = small, poorly fitted or top-dose-only effect, or effect the other way, or a change in a side signal; inactive = no such curve, though single readings can be large or run the other way; the % refers to the polarisation. Where the call is inconclusive, the potency comes from a doubtful curve fit. A note “side channel” means that the fit belongs to a control or component signal, not to the main read-out.
# Target: Histone-lysine N-methyltransferase 2A (Homo sapiens) (UniProt Q03164)
# Test: qHTS Fluorescence Polarization Assay for Inhibitors of MLL CXXC domain - DNA interaction
# Conditions: MLL-CXXC / FITC-HOXA9 DNA fluorescence polarization; activity change, negative = inhibition: at 115 µM (top of the series)
# Procedure, shortened: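 Purified MLL-CXXC (added from a 7 uM solution) was preincubated 5 min at ambient with pinned compounds in 50 mM Tris-HCl pH 7.5, 50 mM NaCl, 1 mM DTT, 0.05% BSA. Fluorescein-labeled HOX-A9 DNA (50 nM solution) followed, 30 min, then polarization read.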
# Potency is read from the fitted curve at half-maximal effect.
SMILES,Potency,"activity change, negative = inhibition"
N#Cc1c(/N=C/c2ccc(-c3ccccc3C(=O)O)o2)sc2c1CCCC2,"inconclusive: 31.6 µM [fluorescent, side channel, partial curve]",
OCC[C@@H]1C[C@H](O)[C@@H](O)[C@@]2(CCc3ccccc3O2)O1,inactive,
N=c1oc2cc(O)ccc2cc1C(=O)Nc1ccc(F)cc1,"inconclusive: 20 µM [fluorescent, side channel, partial curve]",
CC(=O)c1cccc(CN2CCCC(C(=O)Nc3ccc(-c4ccco4)cc3)C2)c1 (centres undefined),"inconclusive: 8.91 µM [fluorescent, side channel, full curve]",
CCOC(=O)C(C#N)=C1CCN(Cc2ccccc2)CC1,"inconclusive: 31.6 µM [fluorescent, single point]",
COc1ccc(Nc2c3ccccc3nc3ccccc23)cc1,"inconclusive: 89.1 µM [quencher, side channel, single point]",
O=C(C1CCCO1)N1CCN(Cc2c(O)ccc3ccccc23)CC1 (centres undefined),inactive,
N#CCC(=N)N1CCN(c2ccc(F)cc2)CC1,"inconclusive: 1 µM [fluorescent, side channel, full curve, poor fit]",
CCOC(=O)c1c(CSC(=N)N)n(-c2ccc(Br)cc2)c2cc(Br)c(OC(C)=O)cc12,"inconclusive: 44.7 µM [quencher, side channel, partial curve]",
Cc1ccc(NS(=O)(=O)c2ccc(Cl)c(C(=O)Nc3ccccc3-c3nc4ccccc4[nH]3)c2)cc1C,inactive,
O=C(Nc1c2c(nn1-c1ccc(Cl)cc1)CS(=O)(=O)C2)c1ccc2c(c1)OCO2,inactive,
COc1ccccc1N1CCN(CC(O)c2c(C)[nH]c3ccccc23)CC1 (centres undefined),"inconclusive: 14.1 µM [inhibitor, single point]",
Cc1cc2cc(CNC(=O)c3ccc(S(=O)(=O)N4CCCC4)cc3)ccc2n1C,inactive,
CCOC(CCNC(=O)c1cn(-c2cccc(C)n2)cn1)OCC,inactive,
C=CCn1c(=O)/c(=C\c2ccsc2)s/c1=C(/C#N)C(=O)NCCN1CCOCC1,"inconclusive: 89.1 µM [fluorescent, side channel, single point]",
O=C(COC(=O)c1ccc(Br)o1)Nc1ncc(Cl)cc1Cl,inactive,
COc1ccc(Cl)cc1C(=O)Nc1ccccc1N1CCN(C(=O)C(C)C)CC1,inactive,
COc1ccc(NC2=NC(C)(CO)CS2)cc1 (centres undefined),"inconclusive: 39.8 µM [quencher, side channel, partial curve, poor fit]",
O=Nc1c(-c2c(O)[nH]c3ccccc23)[nH]c2ccccc12,"inconclusive: 31.6 µM [quencher, side channel, partial curve]",
CN(CC(=O)Nc1ccc(Cl)c(C(F)(F)F)c1)C(=O)CC1Sc2ccccc2NC1=O (centres undefined),"inconclusive: 70.8 µM [quencher, side channel, single point]",
O=C(NCCc1ccccc1)C1CCN(C(=O)c2ccc([N+](=O)[O-])cc2)CC1,"inconclusive: 14.1 µM [fluorescent, side channel, single point]",
Cn1c(=O)c(Sc2ccccc2)c(O)c2ccccc21,inactive,

SMILES,Potency,"activity change, negative = inhibition"
O=C(NCCCN1CCCC1=O)Nc1cc(Cl)ccc1Cl,"inconclusive: 8.91 µM [quencher, side channel, single point]",
CCCCC1=CC2=C(c3ccco3)C(=O)C(C)(OC(=O)c3ccc(OC)cc3)C(=O)C2=CN1Cc1ccccc1 (centres undefined),inactive,
O=C(Nc1ccc(F)cc1)N(CCCN1CCOCC1)Cc1cc2cc3c(cc2[nH]c1=O)OCCO3,inactive,
COc1ccc(NC(=O)c2cc3ccccc3cc2OC)cc1OC,"inconclusive: 1.12 µM [inhibitor, partial curve, poor fit]",
Cc1[nH]c(=O)[nH]c(=O)c1S(=O)(=O)Nc1ccc(F)cc1F,"inconclusive: 112 µM [fluorescent, side channel, partial curve]",
O=[N+]([O-])c1cc2c(cc1/C=N/n1c(-c3ccccc3)n[nH]c1=S)OCO2,"inconclusive: 31.6 µM [inhibitor, single point]",
O=C(NCc1ccc(Cl)c(Cl)c1)c1ccc2c(c1)OCO2,inactive,
CCOC(=O)C1CCCCN1Cc1ccc(-c2ccccc2)cc1 (centres undefined),"inconclusive: 89.1 µM [inhibitor, single point]",
COC(=O)c1ccc(N2CCCCC2)c(NS(=O)(=O)c2ccc(C)cc2)c1,inactive,
O=C1CCc2cc(S(=O)(=O)NCCC(=O)NC3CCN(Cc4ccccc4)CC3)ccc2N1,"inconclusive: 35.5 µM [fluorescent, side channel, partial curve]",
COc1ccc(-c2cn[nH]c2-c2ccc(OC)cc2)cc1,"inconclusive: 39.8 µM [inhibitor, single point]",
COc1ccc(CNC(=O)C2CC(C)=C(C)CC2C(=O)O)cc1 (centres undefined),"inconclusive: 63.1 µM [fluorescent, side channel, single point]",
Cc1ccc(N(C(=O)CNC(=O)c2ccco2)C(C(=O)NC2CCCCC2)c2ccncc2)c(C)c1 (centres undefined),inactive,
OCCNc1nc2ccccc2n1-c1ncnc2sc3c(c12)CCC3,"inconclusive: 50.1 µM [quencher, side channel, single point]",
COc1cc(/C=C(\C#N)C(=O)NCC2CCCO2)ccc1O (centres undefined),inactive,
COc1cc([N+](=O)[O-])cc(/C=N/NC(=O)Cn2nccc2C)c1O,"inconclusive: 12.6 µM [quencher, side channel, full curve, poor fit]",
NC(N)=NN=C1c2ccccc2-c2ccccc21,"inconclusive: 63.1 µM [fluorescent, side channel, single point]",
COc1nc(Nc2ccc([N+](=O)[O-])cc2)nc(NC(C)C)n1,"inconclusive: 15.8 µM [quencher, side channel, single point]",
CN[C@H]1CCc2cc(OC)c(OC)c(OC)c2-c2ccc(N(C)CC(OC)OC)c(=O)cc21,"inconclusive: 31.6 µM [fluorescent, side channel, partial curve]",
O=C(c1ccc(N2C(=O)C3C4c5ccccc5C(c5ccccc54)C3C2=O)cc1)N1CCOCC1 (centres undefined),"inconclusive: 15.8 µM [fluorescent, side channel, full curve, poor fit]",
CC1(C)C2C(Cl)(Cl)C2(C)c2ccccc2N1C=O (centres undefined),"inconclusive: 11.2 µM [inhibitor, full curve, poor fit]",
O=C(c1cccc(NS(=O)(=O)c2ccccc2)c1)N1CCCC1,inactive,

SMILES,Potency,"activity change, negative = inhibition"
CCOC(=O)c1c(C)n(-c2ccc(C)cc2)c2c(C(C(C)=O)C(=O)O)c(Br)c(O)c(O)c12 (centres undefined),inactive,
Cc1cc(=O)n2[nH]c(SCc3ccccc3Cl)nc2n1,"inconclusive: 10 µM [fluorescent, side channel, single point]",
O=C(N/N=C/c1c(O)n(-c2ccccc2Cl)c(=O)c2ccccc12)c1cccnc1,"inconclusive: 28.2 µM [fluorescent, side channel, partial curve]",
COCCN1CCN(c2cc(-c3ccccc3)nc3cc(-c4cccc(F)c4)nn23)CC1,inactive,
COc1ccc(CNC(=O)CCC(=O)N2CCN(S(=O)(=O)c3ccc(Cl)cc3)CC2)cc1,"inconclusive: 10 µM [fluorescent, side channel, single point]",
O=C(NCc1ccccc1)c1ccc(-c2ccc(F)cc2)o1,inactive,
O=C(NCC1CCCO1)c1ccc(CS(=O)(=O)c2ccc(Cl)cc2)o1 (centres undefined),"inconclusive: 14.1 µM [fluorescent, side channel, single point]",
Cc1ccc(NC(=O)C2C3CCC(O3)C2C(=O)O)cc1Cl (centres undefined),"inconclusive: 14.1 µM [quencher, side channel, single point]",
Cc1ccc(OCC(=O)NC(=S)Nc2ccc(S(=O)(=O)Nc3cc(C)on3)cc2)c(Br)c1,"inconclusive: 39.8 µM [inhibitor, single point]",
Cc1ccc(N(C)S(=O)(=O)c2ccc(C)cc2)cc1,inactive,
CCOc1ccccc1N1CCN(c2ncnc3scc(-c4ccc(OC)cc4)c23)CC1,"inconclusive: 17.8 µM [fluorescent, side channel, partial curve]",
C=CC[N+](C)(C)CCCNC(=O)/C=N/O,"inconclusive: 1.41 µM [fluorescent, side channel, full curve]",
CCc1nnc(NC(=O)c2nc(S(=O)(=O)Cc3ccc(C)cc3)ncc2Cl)s1,"inconclusive: 12.6 µM [inhibitor, single point]",
CCn1c(=O)c2cc(C(=O)NCCOC)sc2c2ccccc21,"inconclusive: 50.1 µM [fluorescent, side channel, single point]",
O=C(N/N=C/c1ccco1)c1cc(C2CC2)nc2ccccc12,,inconclusive: 36.4% [quencher]
C=C(C)Cn1c(CCNC(=O)CC)nc2ccccc21,inactive,
COc1ccc(-c2ccc(C#N)c(SCC(=O)OCc3ccccc3)n2)cc1OC,inactive,
CCCCc1c(C)c(C#N)c2[nH]c3ccccc3n2c1=O,inactive,
O=C(c1cc(Br)c[nH]1)N1CCSCC1,"inconclusive: 2.82 µM [fluorescent, side channel, partial curve]",
Cc1nc(S/C(=C/c2ccc(-c3ccc(Cl)cc3)o2)C(=O)O)n[nH]1,"inconclusive: 7.08 µM [fluorescent, side channel, full curve, poor fit]",

# Of the compounds above, 4 contain an aryl thioether with sulfur outside any ring:
SMILES,Potency,"activity change, negative = inhibition"
Cn1c(=O)c(Sc2ccccc2)c(O)c2ccccc21,inactive,
Cc1cc(=O)n2[nH]c(SCc3ccccc3Cl)nc2n1,"inconclusive: 10 µM [fluorescent, side channel, single point]",
COc1ccc(-c2ccc(C#N)c(SCC(=O)OCc3ccccc3)n2)cc1OC,inactive,
Cc1nc(S/C(=C/c2ccc(-c3ccc(Cl)cc3)o2)C(=O)O)n[nH]1,"inconclusive: 7.08 µM [fluorescent, side channel, full curve, poor fit]",
